These are yes or no findings as the source states them, for the method shown. Binding seen in cells or lysates may run through a third protein. A yes stands for co-enrichment or nearness to the bait. Other partners may have been found. Where a sequence is shown, tags or fusion partners need not be part of it.
Target: T1, Minichromosome maintenance family protein 5 (MCM5), At2g07690, from Arabidopsis cell suspension culture (Arabidopsis) (UniProt O80786)
T1 sequence (looked up): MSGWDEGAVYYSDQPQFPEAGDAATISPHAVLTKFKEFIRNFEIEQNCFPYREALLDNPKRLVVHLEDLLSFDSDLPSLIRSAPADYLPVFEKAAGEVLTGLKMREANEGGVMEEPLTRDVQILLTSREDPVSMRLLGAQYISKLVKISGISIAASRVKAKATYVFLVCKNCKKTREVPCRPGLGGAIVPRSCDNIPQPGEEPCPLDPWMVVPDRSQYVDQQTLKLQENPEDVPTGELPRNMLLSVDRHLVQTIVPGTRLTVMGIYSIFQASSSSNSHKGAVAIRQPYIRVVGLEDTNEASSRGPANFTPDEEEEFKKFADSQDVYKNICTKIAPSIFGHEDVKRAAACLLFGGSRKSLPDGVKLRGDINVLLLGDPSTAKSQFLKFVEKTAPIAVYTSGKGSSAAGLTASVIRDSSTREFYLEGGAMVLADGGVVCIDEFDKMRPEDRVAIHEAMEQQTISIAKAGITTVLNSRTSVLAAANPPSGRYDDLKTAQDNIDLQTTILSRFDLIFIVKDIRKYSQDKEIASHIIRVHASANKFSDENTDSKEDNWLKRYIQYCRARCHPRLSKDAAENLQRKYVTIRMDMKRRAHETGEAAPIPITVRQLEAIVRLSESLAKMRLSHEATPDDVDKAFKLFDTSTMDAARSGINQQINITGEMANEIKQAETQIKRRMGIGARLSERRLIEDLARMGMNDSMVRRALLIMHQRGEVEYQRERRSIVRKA
Assay: listed among ETG1-copurified proteins (TAP, mass spectrometry); detected in the two independent TAP experiments

B1: TAP-ETG1 (TAP-tagged ETG1 bait, Pro35S:TAP-ETG1) (protein, Arabidopsis, UniProt Q501D5 1-589, looked up)
chain: MGGPAYDCLTNPLGAVRFSFVNALSSGYDPASSVGKDWGVVDLFRHYFSDESAISQVPILDSSSIKWVQPKTLVRFRGMIQDMLGNEFYAGAYKDDSTWRTNKYSDVSQFPEGSSTEIQVWERRLLYCVPVPGKNQWTECSSQELKNRFLDLTGQNREKRVRVDEEMTDSMDSSTLEAGRNGSPFKKMKVGEATSSASESQVPQTSGIPPATSADSLPCLVKIYDSPESDLKLNDVVEFLGVLTFDPIVMMDTDTLDENSDALSEAESVQMPSGKVPRLHCLIHRKLETQHFLHGSSLLPEPKSPQIFKEIRESLMKYLTGLLGNDHIAAQFLLLHLLSKVHGRVDNVAVGKLSLNLIHLNKESMSIFGTQLSGALKSLLPFTQSIPLTIEYLNTASFGPKKDYGINRLMPGVLQIADGTHLILDETELQPGTLNSVGVENANLLKNLLECQKVEYDFQYYKMEMATDVQMLIFSEGKSNIMPADLVLPLQPSQVNSLEVITPETAETWRCYLATCKSLSHSIGQELQQVVENDLVAARQTDRSLGSQDLSRLLTMARMMSVSYGETTLSLEHWQMVLELERLRKERLK
B1 was tested, and the binding was “binds”.
